Results deposited as PubChem BioAssay AID720505 (Drosophila RNAi Screening Center, 2013).

- Aim: 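Fly regulators or components of the CRAC channel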 (primary screen)
- System: Drosophila S2R+ cells
- Knock-down reagent: long dsRNA against Drosophila genes
- Treatment: thapsigargin (2 µM) in calcium-free buffer to empty internal stores, then 2 mM calcium added back
- Measurement: 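Fluo-4 signal in 384-well plates read on a FLIPR after thapsigargin (2 µM, calcium-free) store depletion and 2 mM calcium add-back; unnormalised mean endpoint per well; screen run twice, selected wells retested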
- Reading the numbers: calcium signal and retest calcium signal: higher = more calcium entry after store depletion
- Rule for the call: 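About 1500 genes called as lowering calcium entry, by varying amounts, judged against per-plate control wells with STIM1 as positive and Rho1 as negative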
- Calls: active = called as lowering calcium entry; inactive = not called
The deposit covers about 20,000 reagents; below is an unselected part of those that have a named target and a result. Over the whole deposit, about 2,100 (10%) are marked active. 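Raw plate signals without normalisation; calls rest on control-based scores that were not deposited; replicate 2 separates called from uncalled poorly.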 The numbers tell different reagents against one gene apart. Names joined by + are all predicted targets of the reagent. No sequences are given here. Not stated in the record: the amount of reagent, the time to read-out.

| gene | dsRNA no. | calcium signal, replicate 1 | calcium signal, replicate 2 | retest calcium signal, replicate 1 | retest calcium signal, replicate 2 | activity call |
| --- | --- | --- | --- | --- | --- | --- |
| CG30487 | 1 | 104 | 141 | – | – | inactive |
| CG6766 | 1 | 64 | 96.4 | 98.7 | 149 | active |
| lncRNA:CR30121 | 1 | 111 | 112 | – | – | inactive |
| Adk3 | 1 | 159 | 84.8 | – | – | inactive |
| Snap25 | 1 | 221 | 83 | – | – | inactive |
| Snap25 | 2 | 148 | 117 | – | – | inactive |
| Dic1 | 1 | 104 | 84.3 | – | – | inactive |
| Cyp311a1 | 1 | 96.5 | 98.3 | – | – | inactive |
| CG5746 | 1 | 194 | 227 | – | – | inactive |
| TwdlJ | 1 | 68.4 | 83.6 | – | – | active |
| by | 1 | 133 | 95.9 | – | – | inactive |
| CG13634 | 1 | 142 | 92.4 | – | – | inactive |
| Muc68Ca | 1 | 125 | 95.2 | – | – | inactive |
| Muc68Ca | 2 | 89.7 | 64.3 | – | – | inactive |
| l(2)05287 | 1 | 109 | 89.6 | – | – | inactive |
| l(2)05287 | 2 | 86.2 | 77.2 | – | – | inactive |
| CG8768 | 1 | 150 | 137 | – | – | inactive |
| Gpb5 | 1 | 110 | 107 | – | – | inactive |
| CG33474 | 1 | 93.6 | 112 | – | – | inactive |
| CG9896 | 1 | 5406 | 124 | – | – | active |
| CG9896 | 2 | 130 | 140 | – | – | inactive |
| KdelR | 1 | 118 | 89.3 | – | – | inactive |
| CG12576 | 1 | 118 | 103 | – | – | inactive |
| dsx | 1 | 95.1 | 97.7 | 180 | 131 | inactive |
| dsx | 2 | 108 | 121 | – | – | inactive |
| RpL13 | 1 | 91.8 | 123 | – | – | inactive |
| CG30083 | 1 | 89.9 | 144 | – | – | inactive |
| TrpRS-m | 1 | 103 | 102 | – | – | inactive |
| CG13229 | 1 | 94.8 | 105 | – | – | inactive |
| CG10588 | 1 | 85.2 | 163 | – | – | inactive |
| Uqcc1 + CG9948 | 1 | 113 | 85.2 | – | – | inactive |
| CG1598 | 1 | 96.8 | 125 | – | – | inactive |
| Rap1 | 1 | 159 | 78.3 | – | – | inactive |
| Hnf4 | 1 | 227 | 114 | – | – | inactive |
| Hnf4 | 2 | 98.5 | 132 | – | – | inactive |
